Data: publication PMC10319587
Results are given in words; binding and its absence hold for the method and conditions named. In cells and extracts the contact can be indirect. Some entries that bind do so weakly or less than the wild type.

Chains of the proteins cited; added tags and fusions are not shown.
UniProt Q15796: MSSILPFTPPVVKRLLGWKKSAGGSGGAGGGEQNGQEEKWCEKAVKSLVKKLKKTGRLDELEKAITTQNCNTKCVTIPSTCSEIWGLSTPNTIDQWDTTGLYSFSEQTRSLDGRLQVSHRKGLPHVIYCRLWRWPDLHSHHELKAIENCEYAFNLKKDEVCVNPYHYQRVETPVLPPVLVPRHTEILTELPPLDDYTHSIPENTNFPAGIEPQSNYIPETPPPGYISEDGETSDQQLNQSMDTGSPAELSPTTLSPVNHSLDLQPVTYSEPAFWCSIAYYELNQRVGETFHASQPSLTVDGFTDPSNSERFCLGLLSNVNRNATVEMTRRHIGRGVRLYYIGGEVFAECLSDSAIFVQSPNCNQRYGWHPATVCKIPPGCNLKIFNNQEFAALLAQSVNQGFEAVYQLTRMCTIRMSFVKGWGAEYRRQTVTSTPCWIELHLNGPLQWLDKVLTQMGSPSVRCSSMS
UniProt Q09472: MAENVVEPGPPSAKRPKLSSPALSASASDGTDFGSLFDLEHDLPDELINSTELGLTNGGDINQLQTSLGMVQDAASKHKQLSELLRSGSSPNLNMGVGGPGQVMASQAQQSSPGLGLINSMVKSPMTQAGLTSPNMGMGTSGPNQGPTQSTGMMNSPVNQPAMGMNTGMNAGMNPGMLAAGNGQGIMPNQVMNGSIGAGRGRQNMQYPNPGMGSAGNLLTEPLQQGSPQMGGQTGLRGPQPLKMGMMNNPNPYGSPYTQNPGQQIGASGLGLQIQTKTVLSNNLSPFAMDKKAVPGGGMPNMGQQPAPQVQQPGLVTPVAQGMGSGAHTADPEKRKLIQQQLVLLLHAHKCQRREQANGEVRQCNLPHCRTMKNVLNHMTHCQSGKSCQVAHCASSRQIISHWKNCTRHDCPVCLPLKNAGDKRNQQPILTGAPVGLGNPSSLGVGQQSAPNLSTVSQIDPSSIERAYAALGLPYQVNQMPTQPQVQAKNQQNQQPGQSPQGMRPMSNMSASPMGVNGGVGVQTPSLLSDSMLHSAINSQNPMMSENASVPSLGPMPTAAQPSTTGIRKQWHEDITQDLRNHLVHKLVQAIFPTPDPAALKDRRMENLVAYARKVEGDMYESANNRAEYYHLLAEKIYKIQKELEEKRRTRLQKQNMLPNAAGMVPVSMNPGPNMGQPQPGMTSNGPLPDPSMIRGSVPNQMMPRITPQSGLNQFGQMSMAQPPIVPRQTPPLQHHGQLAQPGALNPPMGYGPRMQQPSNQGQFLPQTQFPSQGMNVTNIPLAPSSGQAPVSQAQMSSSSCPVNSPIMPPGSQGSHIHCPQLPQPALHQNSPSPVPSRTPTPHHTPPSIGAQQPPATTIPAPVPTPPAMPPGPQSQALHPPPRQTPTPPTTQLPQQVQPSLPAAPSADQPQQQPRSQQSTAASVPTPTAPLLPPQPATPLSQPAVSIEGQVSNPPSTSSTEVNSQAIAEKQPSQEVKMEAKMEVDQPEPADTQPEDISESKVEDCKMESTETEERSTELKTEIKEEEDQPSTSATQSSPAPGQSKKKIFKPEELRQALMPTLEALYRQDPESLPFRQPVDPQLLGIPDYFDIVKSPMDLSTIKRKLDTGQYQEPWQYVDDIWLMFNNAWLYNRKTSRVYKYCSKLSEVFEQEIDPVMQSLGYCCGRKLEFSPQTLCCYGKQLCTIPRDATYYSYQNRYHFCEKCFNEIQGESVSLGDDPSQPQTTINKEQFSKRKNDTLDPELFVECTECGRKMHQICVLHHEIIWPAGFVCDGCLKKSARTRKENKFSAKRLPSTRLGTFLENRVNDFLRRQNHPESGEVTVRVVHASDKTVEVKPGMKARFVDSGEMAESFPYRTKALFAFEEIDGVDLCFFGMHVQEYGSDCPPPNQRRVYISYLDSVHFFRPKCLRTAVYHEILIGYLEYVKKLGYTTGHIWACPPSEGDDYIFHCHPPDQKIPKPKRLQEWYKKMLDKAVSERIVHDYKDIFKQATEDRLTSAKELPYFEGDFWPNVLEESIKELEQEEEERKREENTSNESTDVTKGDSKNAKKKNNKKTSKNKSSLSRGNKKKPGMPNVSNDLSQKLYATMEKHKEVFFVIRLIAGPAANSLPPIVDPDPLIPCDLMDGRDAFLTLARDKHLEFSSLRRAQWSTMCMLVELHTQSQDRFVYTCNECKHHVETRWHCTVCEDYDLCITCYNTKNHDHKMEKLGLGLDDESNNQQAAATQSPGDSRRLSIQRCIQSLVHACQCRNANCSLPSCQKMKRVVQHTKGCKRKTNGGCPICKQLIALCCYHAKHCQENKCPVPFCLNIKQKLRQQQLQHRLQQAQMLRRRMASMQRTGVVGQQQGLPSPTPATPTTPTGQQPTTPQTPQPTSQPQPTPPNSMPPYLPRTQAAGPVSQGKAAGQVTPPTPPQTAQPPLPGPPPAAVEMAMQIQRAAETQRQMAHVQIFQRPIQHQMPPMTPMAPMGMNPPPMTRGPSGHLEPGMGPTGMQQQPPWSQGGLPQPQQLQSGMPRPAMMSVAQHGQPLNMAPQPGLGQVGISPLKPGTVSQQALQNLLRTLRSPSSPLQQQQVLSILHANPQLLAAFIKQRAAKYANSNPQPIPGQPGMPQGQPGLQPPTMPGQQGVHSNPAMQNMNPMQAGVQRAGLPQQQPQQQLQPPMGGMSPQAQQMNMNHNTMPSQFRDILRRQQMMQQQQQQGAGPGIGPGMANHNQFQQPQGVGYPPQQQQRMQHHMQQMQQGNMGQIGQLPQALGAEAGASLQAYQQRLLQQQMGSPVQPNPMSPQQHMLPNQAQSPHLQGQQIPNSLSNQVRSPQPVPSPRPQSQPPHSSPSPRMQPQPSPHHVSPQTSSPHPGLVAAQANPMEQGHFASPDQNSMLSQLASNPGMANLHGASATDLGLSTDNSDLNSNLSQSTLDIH

Columns and labels:
[1] = target: SMAD2 (human (endogenous in SGC-7901 and HGC-27)) (UniProt Q15796); experiment: co-IP; lysates of SGC-7901 and HGC-27 cells immunoprecipitated with anti-SMAD2 or anti-p300 antibody overnight at 4°C on protein A/G magnetic beads; western blot with the respective other antibody (forward and reverse co-IP)
[2] = target: p300 (human (endogenous in SGC-7901 and HGC-27)) (UniProt Q09472); experiment: as above

binding [1] | binding [2] | Substance
binds | – | p300 (from UniProt Q09472 1-2414)
– | binds | SMAD2 (from UniProt Q15796 1-467)
